Measurements: paper PMC6702985
These are yes or no findings as the source states them, for the method shown. Binding seen in cells or lysates may run through a third protein. Some entries that bind do so weakly or less than the wild type. Where a sequence is shown, tags or fusion partners need not be part of it. One block for each binder: values may come before it.

How the values were obtained:
[1] = target: T1, ODF1-ECFP (outer dense fiber protein 1 fused to ECFP) (UniProt Q61999); assay: co-IP; HEK-293 cells transfected with both expression plasmids; lysis buffer 150 mM NaCl, 1% Nonidet P40, 0.5% sodium deoxycholate, 0.1% SDS, 50 mM Tris-HCl pH 7.6; capture with rabbit anti-GFP or rat anti-RedFP on protein G agarose overnight at 4°C; control rabbit anti-GAL4 (DBD); immunoblot
T1 sequence: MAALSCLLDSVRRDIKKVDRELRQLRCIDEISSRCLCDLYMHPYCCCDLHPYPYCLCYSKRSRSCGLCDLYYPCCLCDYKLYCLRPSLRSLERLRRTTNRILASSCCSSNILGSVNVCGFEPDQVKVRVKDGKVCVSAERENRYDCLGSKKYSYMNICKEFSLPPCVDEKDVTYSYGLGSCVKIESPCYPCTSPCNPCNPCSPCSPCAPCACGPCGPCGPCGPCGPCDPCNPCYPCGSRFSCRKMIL

[2] = target: T2, CCDC42-Cherry (coiled-coil domain containing 42, isoform 203, fused to Cherry), expressed in HEK-293 cells (mouse) (UniProt Q5SV66); assay: as above
T2 sequence: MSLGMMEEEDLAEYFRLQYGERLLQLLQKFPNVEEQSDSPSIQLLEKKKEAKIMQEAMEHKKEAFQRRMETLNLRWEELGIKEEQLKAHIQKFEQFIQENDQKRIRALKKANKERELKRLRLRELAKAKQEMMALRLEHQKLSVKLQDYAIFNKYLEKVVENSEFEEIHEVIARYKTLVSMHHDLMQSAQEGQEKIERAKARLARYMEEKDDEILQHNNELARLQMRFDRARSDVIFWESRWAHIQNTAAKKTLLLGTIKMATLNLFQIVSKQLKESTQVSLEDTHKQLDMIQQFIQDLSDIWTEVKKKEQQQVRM

binding [1]: binds
B1: CCDC42-Cherry (coiled-coil domain containing 42, isoform 203, fused to Cherry), expressed in HEK-293 cells (protein, UniProt Q5SV66-1 1-316)
chain: T2 sequence

binding [2]: binds
B2: ODF1-ECFP (outer dense fiber protein 1 fused to ECFP) (protein, UniProt Q61999 1-247)
chain: T1 sequence
